Organism: Cavia porcellus
Test: tissue or blood
Settings: Ileum

`CN1CC[C@]23c4c5ccc(O)c4O[C@H]2[C@@H](O)C=C[C@H]3[C@H]1C5` [MORPHINE] showed an IC50 of 130 pM.

Reference: ChEMBL document CHEMBL1124645, “Minimum-structure enkephalin analogues incorporating L-tyrosine, D(or L)-phenylalanine, and a diamine spacer” (J Med Chem, 1989)
